The assay deals with APC2/APC11 (Homo sapiens, UniProt Q9NYG5+Q9UJX6). The assay can be described thus: Second ubiquitin assay, APC2/APC11 free in solution, products separated by size-exclusion HPLC (GEL). Particulars: read-out: LIGASE E3 APC2/APC11 H E1/GEL IC50, gel-filtration HPLC read-out, expected mixture of 5E and 5Z isomers.

Sequences of proteins named here, by UniProt entry; tags and fusion partners are left off.
UniProt Q9NYG5, whole entry: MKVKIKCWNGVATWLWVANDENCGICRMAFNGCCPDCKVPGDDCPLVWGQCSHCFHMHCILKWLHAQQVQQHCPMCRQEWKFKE
UniProt Q9UJX6, whole entry: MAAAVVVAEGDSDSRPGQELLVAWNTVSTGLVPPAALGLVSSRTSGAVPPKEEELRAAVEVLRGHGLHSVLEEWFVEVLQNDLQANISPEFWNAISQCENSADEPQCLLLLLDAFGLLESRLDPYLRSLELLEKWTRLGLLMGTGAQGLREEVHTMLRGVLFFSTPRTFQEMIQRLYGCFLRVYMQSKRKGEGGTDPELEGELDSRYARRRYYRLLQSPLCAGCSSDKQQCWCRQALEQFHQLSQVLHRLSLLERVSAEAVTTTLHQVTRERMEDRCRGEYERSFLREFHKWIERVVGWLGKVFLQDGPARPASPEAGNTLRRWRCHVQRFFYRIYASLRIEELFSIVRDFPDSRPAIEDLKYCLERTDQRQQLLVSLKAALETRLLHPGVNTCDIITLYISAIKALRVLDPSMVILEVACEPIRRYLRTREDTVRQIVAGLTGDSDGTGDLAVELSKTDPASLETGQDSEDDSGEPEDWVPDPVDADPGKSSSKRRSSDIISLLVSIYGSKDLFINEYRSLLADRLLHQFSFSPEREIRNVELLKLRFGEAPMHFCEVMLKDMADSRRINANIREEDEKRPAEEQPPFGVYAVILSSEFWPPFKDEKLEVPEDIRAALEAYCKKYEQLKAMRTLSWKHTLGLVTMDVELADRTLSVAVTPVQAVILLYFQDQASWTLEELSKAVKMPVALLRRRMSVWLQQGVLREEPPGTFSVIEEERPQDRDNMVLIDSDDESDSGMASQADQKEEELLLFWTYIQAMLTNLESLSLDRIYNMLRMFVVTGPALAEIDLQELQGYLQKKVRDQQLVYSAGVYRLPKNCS

Certain results were filed several times, with different values. Only these are listed. An entry can have further records. Results that share an entry differ, and nothing given here explains why; dose, time, organism, isomer or construct need not be as stated for each record.

In the case of `O=C(O)c1ccc(-c2ccc(/C=C3\SC(=S)N(C4CCCCC4)C3=O)o2)cc1`, the IC50 is 2 µM and 20 µM.

The values above are taken from US20060276520A1 (priority 2002, published 2006).
